Measured values published in the supplement of paper PMC7666118.
The other results are listed elsewhere or left out.

The chains behind the UniProt entries cited, without tags or fusion partners. Where a name states a change or a piece, a line headed by the entry shows the natural chain unless it says otherwise.
UniProt Q9UHY1: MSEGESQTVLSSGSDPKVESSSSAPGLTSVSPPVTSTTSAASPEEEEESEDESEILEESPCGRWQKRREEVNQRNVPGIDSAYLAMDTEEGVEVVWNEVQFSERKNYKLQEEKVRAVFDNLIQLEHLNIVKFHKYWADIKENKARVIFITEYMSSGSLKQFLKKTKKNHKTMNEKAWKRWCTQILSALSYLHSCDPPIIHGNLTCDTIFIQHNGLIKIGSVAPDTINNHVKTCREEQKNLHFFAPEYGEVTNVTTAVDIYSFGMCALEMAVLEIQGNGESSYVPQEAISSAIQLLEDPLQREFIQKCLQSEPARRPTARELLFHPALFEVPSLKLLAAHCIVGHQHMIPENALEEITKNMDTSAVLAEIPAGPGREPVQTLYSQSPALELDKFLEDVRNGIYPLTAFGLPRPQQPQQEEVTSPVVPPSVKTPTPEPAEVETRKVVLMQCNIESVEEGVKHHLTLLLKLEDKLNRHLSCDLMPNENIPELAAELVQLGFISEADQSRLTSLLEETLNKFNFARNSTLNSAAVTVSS
UniProt O43809, whole entry: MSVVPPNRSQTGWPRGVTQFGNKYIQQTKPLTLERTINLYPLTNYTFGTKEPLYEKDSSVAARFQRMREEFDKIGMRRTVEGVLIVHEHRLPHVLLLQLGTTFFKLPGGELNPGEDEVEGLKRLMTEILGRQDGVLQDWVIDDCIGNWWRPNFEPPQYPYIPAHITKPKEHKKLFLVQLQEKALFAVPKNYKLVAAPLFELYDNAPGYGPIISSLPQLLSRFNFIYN
UniProt Q13442: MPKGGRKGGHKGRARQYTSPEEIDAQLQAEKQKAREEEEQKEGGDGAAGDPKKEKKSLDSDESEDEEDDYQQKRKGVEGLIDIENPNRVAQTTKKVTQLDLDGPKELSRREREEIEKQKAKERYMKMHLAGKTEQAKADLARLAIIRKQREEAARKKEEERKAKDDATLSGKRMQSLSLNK
UniProt Q6GQQ9: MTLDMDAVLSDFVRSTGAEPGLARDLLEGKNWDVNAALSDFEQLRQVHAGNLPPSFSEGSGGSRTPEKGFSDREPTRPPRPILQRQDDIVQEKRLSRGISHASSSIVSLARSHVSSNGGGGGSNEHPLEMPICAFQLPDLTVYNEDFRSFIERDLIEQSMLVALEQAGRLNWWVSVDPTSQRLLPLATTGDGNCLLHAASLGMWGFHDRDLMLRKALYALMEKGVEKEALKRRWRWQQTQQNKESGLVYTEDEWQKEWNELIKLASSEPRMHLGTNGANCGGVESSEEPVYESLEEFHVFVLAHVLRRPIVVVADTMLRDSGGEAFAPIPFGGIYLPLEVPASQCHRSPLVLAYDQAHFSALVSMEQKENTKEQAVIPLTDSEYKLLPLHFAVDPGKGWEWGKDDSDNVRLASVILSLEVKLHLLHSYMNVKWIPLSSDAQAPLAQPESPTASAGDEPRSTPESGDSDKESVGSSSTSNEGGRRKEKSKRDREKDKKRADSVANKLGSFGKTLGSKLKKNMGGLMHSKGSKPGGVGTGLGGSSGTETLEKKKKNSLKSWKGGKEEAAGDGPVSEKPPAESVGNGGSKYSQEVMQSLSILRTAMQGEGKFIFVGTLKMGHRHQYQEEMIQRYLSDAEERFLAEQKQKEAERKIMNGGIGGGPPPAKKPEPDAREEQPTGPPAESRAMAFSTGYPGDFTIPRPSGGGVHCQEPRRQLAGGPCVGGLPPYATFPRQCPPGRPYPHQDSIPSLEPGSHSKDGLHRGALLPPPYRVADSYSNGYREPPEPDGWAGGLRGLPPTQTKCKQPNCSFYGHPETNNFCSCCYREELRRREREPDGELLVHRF
UniProt Q96RS6: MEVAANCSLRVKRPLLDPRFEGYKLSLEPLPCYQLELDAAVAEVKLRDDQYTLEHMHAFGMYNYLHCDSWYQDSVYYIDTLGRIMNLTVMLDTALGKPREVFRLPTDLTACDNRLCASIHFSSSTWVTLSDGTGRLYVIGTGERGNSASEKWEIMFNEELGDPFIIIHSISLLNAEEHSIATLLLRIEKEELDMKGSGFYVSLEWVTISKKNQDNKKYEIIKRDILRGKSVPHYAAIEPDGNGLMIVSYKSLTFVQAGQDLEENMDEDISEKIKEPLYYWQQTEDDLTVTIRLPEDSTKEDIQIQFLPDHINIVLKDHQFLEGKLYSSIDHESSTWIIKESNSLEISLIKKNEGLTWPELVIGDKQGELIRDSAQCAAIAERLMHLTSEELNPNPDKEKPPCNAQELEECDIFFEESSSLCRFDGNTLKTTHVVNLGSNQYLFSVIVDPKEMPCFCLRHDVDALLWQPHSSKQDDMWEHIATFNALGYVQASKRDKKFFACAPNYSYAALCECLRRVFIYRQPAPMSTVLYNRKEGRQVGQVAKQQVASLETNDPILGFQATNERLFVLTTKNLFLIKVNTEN
UniProt O94921: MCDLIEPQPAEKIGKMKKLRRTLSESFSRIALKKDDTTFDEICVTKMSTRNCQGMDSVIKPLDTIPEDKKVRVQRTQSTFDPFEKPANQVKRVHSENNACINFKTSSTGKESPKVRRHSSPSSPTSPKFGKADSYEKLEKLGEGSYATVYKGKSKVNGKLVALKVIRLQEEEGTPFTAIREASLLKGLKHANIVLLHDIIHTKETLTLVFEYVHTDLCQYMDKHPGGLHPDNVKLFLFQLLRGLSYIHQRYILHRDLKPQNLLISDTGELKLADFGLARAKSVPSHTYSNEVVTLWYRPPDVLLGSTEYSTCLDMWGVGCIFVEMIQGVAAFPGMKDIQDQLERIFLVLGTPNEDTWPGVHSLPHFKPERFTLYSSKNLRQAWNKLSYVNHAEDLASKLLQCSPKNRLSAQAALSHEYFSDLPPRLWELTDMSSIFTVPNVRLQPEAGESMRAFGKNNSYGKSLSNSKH
UniProt Q96HP4: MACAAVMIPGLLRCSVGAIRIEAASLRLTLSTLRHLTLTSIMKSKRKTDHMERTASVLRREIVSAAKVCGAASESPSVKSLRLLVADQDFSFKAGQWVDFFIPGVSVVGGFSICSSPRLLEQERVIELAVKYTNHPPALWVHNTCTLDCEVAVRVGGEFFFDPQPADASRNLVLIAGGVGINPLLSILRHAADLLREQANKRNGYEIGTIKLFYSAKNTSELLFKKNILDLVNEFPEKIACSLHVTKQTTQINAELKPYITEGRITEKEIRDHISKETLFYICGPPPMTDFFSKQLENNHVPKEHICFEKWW
UniProt Q9BW27: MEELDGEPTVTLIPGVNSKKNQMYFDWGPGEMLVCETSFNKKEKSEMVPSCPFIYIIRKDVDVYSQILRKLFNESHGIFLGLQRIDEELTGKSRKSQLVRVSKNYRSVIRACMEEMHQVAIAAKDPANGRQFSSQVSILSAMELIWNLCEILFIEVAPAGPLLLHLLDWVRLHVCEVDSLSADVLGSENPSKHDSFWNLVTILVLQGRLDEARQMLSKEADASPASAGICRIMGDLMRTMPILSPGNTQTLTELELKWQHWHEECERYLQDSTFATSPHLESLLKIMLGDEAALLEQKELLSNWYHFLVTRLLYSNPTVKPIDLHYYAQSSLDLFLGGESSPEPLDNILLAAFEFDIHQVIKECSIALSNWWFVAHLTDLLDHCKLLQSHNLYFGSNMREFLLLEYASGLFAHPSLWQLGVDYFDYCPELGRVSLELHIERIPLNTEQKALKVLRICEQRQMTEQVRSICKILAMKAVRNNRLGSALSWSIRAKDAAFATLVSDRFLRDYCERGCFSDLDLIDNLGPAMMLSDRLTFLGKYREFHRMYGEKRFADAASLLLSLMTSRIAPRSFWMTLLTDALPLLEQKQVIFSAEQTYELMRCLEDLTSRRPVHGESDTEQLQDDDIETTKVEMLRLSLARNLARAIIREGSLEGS
UniProt Q86W56: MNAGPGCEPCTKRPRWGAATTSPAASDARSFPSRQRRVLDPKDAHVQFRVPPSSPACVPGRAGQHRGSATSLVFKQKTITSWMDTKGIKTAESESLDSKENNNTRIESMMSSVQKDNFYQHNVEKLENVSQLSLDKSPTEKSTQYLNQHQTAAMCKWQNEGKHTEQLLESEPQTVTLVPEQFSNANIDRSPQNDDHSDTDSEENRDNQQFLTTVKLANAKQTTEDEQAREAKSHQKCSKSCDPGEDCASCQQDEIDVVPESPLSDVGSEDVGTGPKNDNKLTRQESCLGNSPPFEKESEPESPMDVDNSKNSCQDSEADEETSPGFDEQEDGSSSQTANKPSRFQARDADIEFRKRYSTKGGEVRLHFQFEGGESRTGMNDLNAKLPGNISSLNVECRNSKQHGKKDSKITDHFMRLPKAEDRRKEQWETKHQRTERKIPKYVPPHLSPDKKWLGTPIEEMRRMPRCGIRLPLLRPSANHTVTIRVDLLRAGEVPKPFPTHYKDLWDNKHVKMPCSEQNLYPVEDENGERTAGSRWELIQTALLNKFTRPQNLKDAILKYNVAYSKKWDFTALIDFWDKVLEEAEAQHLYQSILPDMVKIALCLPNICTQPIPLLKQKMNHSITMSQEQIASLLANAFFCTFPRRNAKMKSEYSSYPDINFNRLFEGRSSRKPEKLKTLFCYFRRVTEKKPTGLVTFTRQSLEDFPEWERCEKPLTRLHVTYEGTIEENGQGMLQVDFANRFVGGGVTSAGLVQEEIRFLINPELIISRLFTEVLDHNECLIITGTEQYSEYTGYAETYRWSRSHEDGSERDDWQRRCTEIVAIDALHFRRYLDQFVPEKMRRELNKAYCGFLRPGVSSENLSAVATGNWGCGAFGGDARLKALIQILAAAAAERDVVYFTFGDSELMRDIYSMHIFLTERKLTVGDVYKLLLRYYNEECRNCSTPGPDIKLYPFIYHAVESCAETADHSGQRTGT
UniProt O60925, whole entry: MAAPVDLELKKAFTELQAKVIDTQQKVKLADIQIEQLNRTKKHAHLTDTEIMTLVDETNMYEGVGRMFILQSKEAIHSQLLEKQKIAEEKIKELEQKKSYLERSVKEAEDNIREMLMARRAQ
UniProt O95747, whole entry, looked up: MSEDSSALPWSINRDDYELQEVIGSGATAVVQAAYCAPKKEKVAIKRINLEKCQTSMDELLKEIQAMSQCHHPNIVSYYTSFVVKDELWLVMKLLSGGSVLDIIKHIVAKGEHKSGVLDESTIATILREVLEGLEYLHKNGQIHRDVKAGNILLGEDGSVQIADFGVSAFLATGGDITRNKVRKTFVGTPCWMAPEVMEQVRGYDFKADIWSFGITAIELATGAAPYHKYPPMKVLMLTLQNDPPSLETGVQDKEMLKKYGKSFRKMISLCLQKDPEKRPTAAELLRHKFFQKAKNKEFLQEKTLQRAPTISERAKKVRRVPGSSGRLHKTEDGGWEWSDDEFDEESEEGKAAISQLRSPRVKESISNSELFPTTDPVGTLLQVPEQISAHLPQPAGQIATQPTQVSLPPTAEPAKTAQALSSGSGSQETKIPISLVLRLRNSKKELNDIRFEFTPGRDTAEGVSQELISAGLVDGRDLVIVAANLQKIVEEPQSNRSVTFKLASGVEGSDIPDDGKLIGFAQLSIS
UniProt P35080, whole entry: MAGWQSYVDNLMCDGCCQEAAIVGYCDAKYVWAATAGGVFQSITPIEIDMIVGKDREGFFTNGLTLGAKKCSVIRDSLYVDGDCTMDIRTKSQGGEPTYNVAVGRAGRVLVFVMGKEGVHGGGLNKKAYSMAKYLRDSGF
UniProt Q02218: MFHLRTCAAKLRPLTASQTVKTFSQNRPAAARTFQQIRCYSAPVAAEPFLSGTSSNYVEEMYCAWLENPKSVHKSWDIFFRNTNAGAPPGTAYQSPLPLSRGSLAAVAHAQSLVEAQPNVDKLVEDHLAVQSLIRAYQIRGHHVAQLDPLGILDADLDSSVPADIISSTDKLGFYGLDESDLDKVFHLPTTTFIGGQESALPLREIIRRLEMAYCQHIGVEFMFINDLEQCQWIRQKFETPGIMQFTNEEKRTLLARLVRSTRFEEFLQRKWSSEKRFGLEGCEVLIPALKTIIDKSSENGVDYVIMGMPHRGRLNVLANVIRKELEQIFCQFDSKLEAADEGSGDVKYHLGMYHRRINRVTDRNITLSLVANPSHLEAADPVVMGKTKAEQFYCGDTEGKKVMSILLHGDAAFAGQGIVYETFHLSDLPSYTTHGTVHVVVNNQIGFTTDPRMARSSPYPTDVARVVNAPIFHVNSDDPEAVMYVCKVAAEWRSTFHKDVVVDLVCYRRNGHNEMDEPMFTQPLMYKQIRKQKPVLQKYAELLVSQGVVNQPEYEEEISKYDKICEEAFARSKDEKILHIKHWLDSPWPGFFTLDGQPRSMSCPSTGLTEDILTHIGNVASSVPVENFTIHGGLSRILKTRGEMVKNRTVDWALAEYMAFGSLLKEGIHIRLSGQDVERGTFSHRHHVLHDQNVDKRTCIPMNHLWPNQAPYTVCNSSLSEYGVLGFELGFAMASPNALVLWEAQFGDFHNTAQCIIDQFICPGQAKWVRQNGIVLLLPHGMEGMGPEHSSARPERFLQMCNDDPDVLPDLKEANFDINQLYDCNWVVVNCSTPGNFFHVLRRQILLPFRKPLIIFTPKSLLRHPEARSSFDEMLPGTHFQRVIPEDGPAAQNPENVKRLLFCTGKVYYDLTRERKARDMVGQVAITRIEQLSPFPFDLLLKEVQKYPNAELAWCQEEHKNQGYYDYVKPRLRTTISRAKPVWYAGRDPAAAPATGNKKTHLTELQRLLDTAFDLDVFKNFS

The targets below were run with COc1ccc(Cn2ccc3ccc(C(=O)NO)cc32)cc1 (assay: dose-dependent thermal stabilisation call (2D-TPP, DLPTP, 10% FDR) (binary (1 = stabilised)); higher = stabilised by the compound). Details: system: HL-60 intact cells; concentration range 0.04-10 µM.

Row | Target | dose-dependent thermal stabilisation call
1 | PDDC1 (UniProt Q8NB37) | inactive: 0
2 | NRBP1 (UniProt Q9UHY1) | inactive: 0
3 | PFAS (UniProt O15067) | inactive: 0
4 | NRD1 (UniProt O43847) | inactive: 0
5 | NUDT21 (UniProt O43809) | inactive: 0
6 | PDAP1 (UniProt Q13442) | inactive: 0
7 | PDZD8 (UniProt Q8NEN9) | inactive: 0
8 | OTUD7B (UniProt Q6GQQ9) | inactive: 0
9 | OLA1 (UniProt Q9NTK5) | inactive: 0
10 | NUDCD1 (UniProt Q96RS6) | inactive: 0
11 | NSUN2 (UniProt Q08J23) | inactive: 0
12 | NUDT2 (UniProt P50583) | inactive: 0
13 | PFTK1 (UniProt O94921) | inactive: 0
14 | OXNAD1 (UniProt Q96HP4) | inactive: 0
15 | NUP85 (UniProt Q9BW27) | inactive: 0
16 | OXA1L (UniProt Q15070) | inactive: 0
17 | PEG10 (UniProt Q86TG7) | inactive: 0
18 | OGFOD3 (UniProt Q6PK18) | inactive: 0
19 | NXT2 (UniProt Q9NPJ8) | inactive: 0

Retrieved one by one from the list above, 2 records:
Row | Target | dose-dependent thermal stabilisation call
19 | NXT2 (UniProt Q9NPJ8) | inactive: 0
8 | OTUD7B (UniProt Q6GQQ9) | inactive: 0

Continuation:

Row | Target | dose-dependent thermal stabilisation call
20 | PARG (UniProt Q86W56) | inactive: 0
21 | PAN2 (UniProt Q504Q3) | inactive: 0
22 | NUP205 (UniProt Q92621) | inactive: 0
23 | NUP93 (UniProt Q8N1F7) | inactive: 0
24 | PFKL (UniProt P17858) | inactive: 0
25 | PEX14 (UniProt O75381) | inactive: 0
26 | PFDN1 (UniProt O60925) | inactive: 0
27 | NVL (UniProt O15381) | inactive: 0
28 | NUP54 (UniProt Q7Z3B4) | inactive: 0
29 | PGD (UniProt P52209) | inactive: 0
30 | OVCA2 (UniProt Q8WZ82) | inactive: 0
31 | OXSR1 (UniProt O95747) | inactive: 0
32 | PCBP2 (UniProt Q15366) | inactive: 0
33 | NUDT1 (UniProt P36639) | inactive: 0
34 | PFN2 (UniProt P35080) | inactive: 0
35 | PELP1 (UniProt Q8IZL8) | inactive: 0
36 | OSBPL8 (UniProt Q9BZF1) | inactive: 0
37 | OGFR (UniProt Q9NZT2) | inactive: 0
38 | OGDH (UniProt Q02218) | inactive: 0
